PubChem BioAssay AID1259254 | NCATS – 2017
Screen: 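Genome-wide screen for genes that prevent DNA re-replication in cancer cells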 (primary screen). Cells: human HCT116 colorectal cancer cells. Reagent: single siRNA against human genes. Time to read-out: 3 days. Measurement: 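Imaged Hoechst DNA stain sorts each cell into a cycle phase by DNA amount; per plate, G2 fraction set to 0% for non-targeting and 100% for GMNN siRNA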. Scale: G2 robust z-score: higher = more G2 cells, more excess DNA replication. Call rule: 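Active siRNAs have a G2 robust z of 5 or more median absolute deviations over the median, which in these data means about 38% or higher of GMNN control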.
The whole screen tested about 59,000 reagents; this is a part drawn at random. About 1,550 of all reagents (2.6%) were called active. 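G2 share is only a proxy for re-replication; each gene was hit by three separate siRNAs, and active genes were retested.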 Further read-outs or replicates are left out here. Not stated in the record: the amount of reagent.

The first 3 entries, ahead of the listing:
Gene,PubChem SID,G2 robust z-score,Call
HDGFL2 (HDGF like 2),SID160752646,-0.434,inactive
HDGFL2 (HDGF like 2),SID160752647,1.76,inactive
HDGFL2 (HDGF like 2),SID160752648,2.91,inactive

Main list, from the start:
Gene,PubChem SID,G2 robust z-score,Call
HDGFL2 (HDGF like 2),SID160752646,-0.434,inactive
HDGFL2 (HDGF like 2),SID160752647,1.76,inactive
HDGFL2 (HDGF like 2),SID160752648,2.91,inactive
IL16 (interleukin 16),SID160775794,-0.0869,inactive
IL16 (interleukin 16),SID160775795,-0.944,inactive
IL16 (interleukin 16),SID160775796,1.03,inactive
ZNF12 (zinc finger protein 12),SID160719002,-0.55,inactive
ZNF12 (zinc finger protein 12),SID160719003,-1.09,inactive
ZNF12 (zinc finger protein 12),SID160719004,1.99,inactive
USP45 (ubiquitin specific peptidase 45),SID160753121,0.705,inactive
USP45 (ubiquitin specific peptidase 45),SID160753122,1.34,inactive
USP45 (ubiquitin specific peptidase 45),SID160753123,-1.01,inactive
QDPR (quinoid dihydropteridine reductase),SID160715515,-0.366,inactive
QDPR (quinoid dihydropteridine reductase),SID160715516,0.46,inactive
QDPR (quinoid dihydropteridine reductase),SID160731632,0.149,inactive
DBH (dopamine beta-hydroxylase),SID160752723,4.73,inactive
DBH (dopamine beta-hydroxylase),SID160752734,2.04,inactive
DBH (dopamine beta-hydroxylase),SID160752744,3.1,inactive
"POLD3 (DNA polymerase delta 3, accessory subunit)",SID160729077,0.794,inactive
"POLD3 (DNA polymerase delta 3, accessory subunit)",SID160729078,-1.24,inactive
"POLD3 (DNA polymerase delta 3, accessory subunit)",SID160729079,0.477,inactive
CAT (catalase),SID160736917,-1.68,inactive
CAT (catalase),SID160736927,0.995,inactive
CAT (catalase),SID160736937,1.27,inactive
STC2 (stanniocalcin 2),SID160720431,1.87,inactive
STC2 (stanniocalcin 2),SID160720432,-0.668,inactive
STC2 (stanniocalcin 2),SID160732072,1.33,inactive
MYO1G (myosin IG),SID160747374,3.81,inactive
MYO1G (myosin IG),SID160747375,-0.442,inactive
MYO1G (myosin IG),SID160747376,-0.791,inactive
